Measured values published in PubChem BioAssay AID2685 (National Center for Advancing Translational Sciences (NCATS), 2010).
The other results are listed elsewhere or left out. Further columns of the screen follow, without active or inactive calls. Most of these compounds were active or inconclusive in the main read-out, so they are no random draw. Words in brackets tell the shape of the fitted curve; partial curves, single points and poor fits give uncertain potencies.

Experiment: qHTS Assay for Lipid Storage Modulators in Drosophila S3 Cells;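 on cell number change: cells counted by Cell Tracker Red CMTPX staining in the red channel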
Details: BODIPY lipid droplet fluorescence, 18-24 h; for cell number change: measured here: cell count max response, cells fed with added oleic acid
In short: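 Drosophila S3 cells loaded with oleic acid (400 uM, as added) and compounds at several concentrations; lipid droplets imaged by 488-nm laser-scanning cytometry, 500–530 nm intensity and object ratio to cell channel. Percent activity normalized to 20 uM Triacsin C.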

[1] = measured here: lipid fluorescence (Fed channel) AC50, cells fed with added oleic acid
[2] = measured here: cell number channel AC50, cells fed with added oleic acid

Row | SMILES | cell number change [%] | AC50 [1] | AC50 [2]
1 | O=C(CCC(=O)OCCCC(F)(F)C(F)(F)F)NC1CCCCC1 | -4.82 | 6.51 µM [falling, single point] | 
2 | Cc1nn(Cc2c(F)c(F)c(F)c(F)c2F)c(C)c1NC(=O)c1nn(C)cc1[N+](=O)[O-] | 15.5 | 0.291 µM [rising, full curve] | 0.366 µM [rising, partial curve]
3 | CCSc1ccc([C@@H]2[C@@H]3C(=O)N(CC)C(=O)[C@@H]3[C@]3(C(=O)OC)CCCN23)cc1 | -36.7 | 29.1 µM [falling, single point] | 18.4 µM [falling, single point]
4 | COc1ccc(CCNC(=O)c2cc3c(=O)n4cccc(C)c4nc3n(Cc3ccncc3)c2=N)cc1 | -7 | 0.116 µM [falling, full curve, poor fit] | 
5 | Cc1sc2ncnc(NC3CCN(Cc4ccccc4)CC3)c2c1C |  | 29.1 µM [rising, single point] | 
6 | Cc1ccc(C(=O)Oc2coc(CSc3nnc(NC(=O)c4cccs4)s3)cc2=O)cc1 | 38.5 | 7.31 µM [rising, partial curve] | 2.59 µM [rising, full curve]
7 | COc1ccc(-c2nnnn2C(C)C)cc1 | 13.3 |  | 
8 | O=C(COC(=O)c1ccc(N2CCCC2=O)cc1)c1ccc(OC(F)F)cc1 | 0.451 | 29.1 µM [falling, single point] | 
9 | Cc1nn(-c2ccccc2)c(N2CCCC2)c1/C=N/Nc1ccc(S(N)(=O)=O)cc1[N+](=O)[O-] | -16.2 | 1.84 µM [falling, partial curve] | 
10 | CCSc1nc2c(c(=O)[nH]c(=O)n2C)n1C | -9.12 | 29.1 µM [falling, single point] | 
11 | Cc1ccc(C)c(Nc2ncnc3nc[nH]c23)c1 | 54.9 |  | 9.2 µM [rising, partial curve]
12 | O=C(NNC(=O)C1CCCO1)c1ccc(F)cc1 (configuration not stated) | 4.44 | 4.11 µM [falling, single point] | 4.11 µM [falling, partial curve, poor fit]
13 | CC(=O)Nc1cccc(C(=O)/C=C/c2ccc(C)cc2)c1 | -11.5 |  | 
14 | Cc1ccc(NC(=O)C2CCCN(S(=O)(=O)c3cccc4nonc34)C2)cc1 (configuration not stated) | 455 |  | 18.4 µM [rising, partial curve]
15 | CCC(=O)NCCc1nc2ccccc2[nH]1 | -21.2 |  | 0.00461 µM [falling, full curve, poor fit]
16 | COc1cc2c(cc1OC)C(C(=O)NCc1ccco1)C1c3ccccc3CCN1C2=O (configuration not stated) | -14.4 |  | 
17 | CC1CCC2C(=O)N(c3ccc(NC4CCCCC4)c([N+](=O)[O-])c3)C(=O)C2C1 (configuration not stated) | -64 |  | 25.9 µM [falling, single point]
18 | CCOc1ccc(N2C(=O)Nc3ccc(Br)cc3C2(O)C(=O)NCCCN(C)C)cc1 (configuration not stated) |  | 0.651 µM [falling, single point] | 
19 | Cc1ccnc(NC(=O)c2ccc(S(=O)(=O)N3CCCCCC3)cc2)c1 | 12.7 | 6.51 µM [rising, single point] | 

Part of the list above in order of length of the SMILES, smallest number first.
Row | SMILES | cell number change [%] | AC50 [1] | AC50 [2]
14 | Cc1ccc(NC(=O)C2CCCN(S(=O)(=O)c3cccc4nonc34)C2)cc1 (configuration not stated) | 455 |  | 18.4 µM [rising, partial curve]
6 | Cc1ccc(C(=O)Oc2coc(CSc3nnc(NC(=O)c4cccs4)s3)cc2=O)cc1 | 38.5 | 7.31 µM [rising, partial curve] | 2.59 µM [rising, full curve]
2 | Cc1nn(Cc2c(F)c(F)c(F)c(F)c2F)c(C)c1NC(=O)c1nn(C)cc1[N+](=O)[O-] | 15.5 | 0.291 µM [rising, full curve] | 0.366 µM [rising, partial curve]

The list continues:

Row | SMILES | cell number change [%] | AC50 [1] | AC50 [2]
20 | Cc1ccccc1N/N=C/c1c(C)nc2ccccn12 | 12.6 |  | 
21 | COCCNC(=O)c1cc2c(=O)n3cccc(C)c3nc2n1C |  | 1.3 µM [falling, full curve] | 6.51 µM [falling, single point]
22 | CC(=O)Nc1nc(C)c(Oc2ccccc2)c(=O)[nH]1 | 0.0714 |  | 
23 | CC1(C)SC(=S)N(c2ccccc2)C1/[N+]([O-])=C/c1cccc([N+](=O)[O-])c1 (configuration not stated) | -27.5 | 29.1 µM [falling, single point] | 
24 | CCCCCOC(=O)CSc1n[nH]c(=O)[nH]c1=O | -22.8 | 29.1 µM [falling, single point] | 
25 | O=C(Cc1csc(NC(=O)Nc2ccc(Cl)cc2)n1)NCc1cccnc1 |  |  | 0.461 µM [rising, full curve, poor fit]
26 | Nc1nc(N2CCN(C/C=C/c3ccccc3)CC2)nc2ccccc12 |  | 3.26 µM [rising, partial curve, poor fit] | 
27 | CCCCOc1ccc(S(=O)(=O)NCc2csc(C)n2)cc1 | 127 | 6.51 µM [falling, single point] | 
28 | CCOC(=O)C1(Cc2ccccc2)CCN(C2Cc3ccccc3C2)CC1 | -6.56 |  | 0.13 µM [falling, full curve, poor fit]
29 | O=C(CN1CCN(Cc2ccccc2)CC1)Nc1cccc(Cl)c1 | -19.3 | 4.11 µM [falling, full curve, poor fit] | 
30 | O=C(NC(=S)Nc1ccc2c(c1)OCCO2)c1ccc(F)cc1Cl |  | 11.6 µM [rising, partial curve, poor fit] | 
31 | O=C(NC1CCCc2ccccc21)c1ccc(F)cc1F (configuration not stated) | -9.52 | 29.1 µM [rising, single point] | 
32 | COc1ccc(CCNC(=O)CSc2nnc(-c3ccc(F)cc3)c3ccccc23)cc1OC | -85.4 | 2.06 µM [falling, full curve] | 4.11 µM [falling, full curve]
33 | COc1ccc2c(Cl)c(C(=O)NCCCn3ccnc3)sc2c1 | 3.79 | 0.82 µM [rising, full curve] | 
34 | Cc1ccc(S(=O)(=O)Nc2ccccc2/C=N/c2nc3ccccc3n2C)cc1 | -0.707 | 29.1 µM [rising, single point] | 
35 | O=C(COC(=O)Cc1cccc(C(F)(F)F)c1)Nc1cccc2ccccc12 | 8.71 | 4.11 µM [rising, single point] | 
36 | Cc1cc(S(=O)(=O)N2CCOCC2)ccc1OCC(=O)N1CCC(C)CC1 | -32.5 |  | 1.03 µM [falling, full curve, poor fit]
37 | CSCCC(NC(=O)c1ccc(Cl)cc1)C(=O)OCC(=O)Nc1cc(Cl)ccc1C#N (configuration not stated) | -30.9 | 0.82 µM [falling, full curve] | 0.291 µM [falling, full curve, poor fit]
38 | O=C(Nc1nccs1)c1cc(-c2ccccc2)nn1-c1ccccc1 | -18.4 |  | 4.61 µM [falling, partial curve]
